In PMC10163288:
This is one part of the list.

B1: il10ra_site1_sap_20_mot_HHH_b2_00105_af2_000000045_0001_1_19_H_._HHH_b1_08219_0001_0000100014_0000001_0_0001 (protein)
chain: SSSSDEEERRLEELLREIEEALERGNPEEALELVFEVTHLALRAQDEEALREVWRLVEEIASSSS
B2: il10ra_site1_sap_22_mot_HHH_b1_06174_af2_000000049_0001_40_57_H_._HHH_b1_06759_0001_0000200009_0000002_0_0001 (protein)
chain: SSSSSDSQEVYELLREAAELDHEGNPEEAEELLEKARELAEELNNDVLLWQVEYLLRLLNSSSSS
B3: il10ra_site1_sap_13_mot_HHH_b1_06819_af2_000000053_0001_23_38_H_._HHH_b2_00593_0001_0000100010_0000003_0_0001 (protein)
chain: SSSSSEELNDEAYKILEEALELMANGNPEEARELLEELRELLEEAGNQIFLKQVEFLLKQLSSSS
B4: il10ra_site1_normal_mot_HHH_b1_00482_000000190_0001_20_39_H_._HHH_b1_07814_0001_0000100002_0000001_0 (protein)
chain: SSSSDEEHLRLAELLTEIIRLLAEGDPEEARKLLEEAEELARELNDELAEDMLRTLEQHINSSSS
B5: il10ra_site1_sap_15_mot_HHH_b1_05088_af2_000000046_0001_20_36_H_._HHH_b2_03488_0001_0000400042_0000001_0_0001 (protein)
chain: SSSSDSREVYELLRRAAELLHDGNPEEAREVLEEAHKIAEEANNRVMEAVIRRMLEVVEELSSSS
B6: il10ra_site1_sap_22_mot_HHH_b1_00982_af2_000000222_0001_1_20_H_._HHH_b2_03094_af2_0001_0000100002_0000002_0_0001 (protein)
chain: SSSSTQESYEFTKRVAQEIVELLRNGNEEEAERVLEEAKEYLEKLGDEYFVEILERAFELSSSSS
B7: il10ra_site1_normal_mot_HHH_b1_05056_000000217_0001_1_20_H_._HHH_b2_06260_0001_0000300022_0000001_0 (protein)
chain: SSSSSEDEEEVEELLRQAEEAAKRDPREAARLLQEATHIALENSNQELLQEVWKVVKELADSSSS
B8: il10ra_site1_normal_mot_HHH_b1_06816_000000239_0001_1_19_H_._HHH_b2_02034_0001_0000600024_0000002_0_af2pred_0001 (protein)
chain: SSSSSSDLEEQAEELLEEVEKIDNPQERTEVARKAIELAVRAGNPELAREISRIATRLSSSSSSS
B9: il10ra_site1_normal_mot_HHH_b1_07369_af2_000000079_0001_1_18_H_._HHH_b1_01602_0001_0000500042_0000001_0 (protein)
chain: SSSSDEEELERYIEIALRFAELAGDPEVAERIRQLLEEFREEGDPRYTIEAAKAATRVLHGSSSS
B10: il10ra_site1_normal_mot_HHH_b1_05056_000000217_0001_1_20_H_._HHH_b2_02585_0001_0000300044_0000001_0 (protein)
chain: SSSSSDEEEREEVEELLEEAKRIEDRREVARLLQEATHLALRLQDPELLREVWRVVREWASSSSS
B11: il10ra_site1_normal_mot_HHH_b2_06979_000000158_0001_42_57_H_._HHH_b1_03932_af2_0001_0000400018_0000001_0 (protein)
chain: SSSSTERELAERAIELLRRAAHIDDEEEVEELLEEAKELAKEAGNELLLFNIEFRERDLLSSSSS
B12: il10ra_site1_sap_7_mot_HHH_b2_06142_af2_000000101_0001_1_18_H_._HHH_b1_06107_0001_0000100002_0000002_0_0001 (protein)
chain: SSSSDEEVLERAAEVSQEAVRLALRQGDEEALQELWRLFRRIIEEGDPELLEELEELLERLSSSS
B13: il10ra_site1_sap_19_mot_HHH_b1_03900_000000129_0001_1_16_H_._HHH_b1_06902_af2_0001_0000300009_0000002_1_0001 (protein)
chain: SSSSSEDRRELYRLTREAVELDHEGDPEKAKEVLEEAIELARELGDMLLLRIAEWLYELNSSSSS
B14: il10ra_site1_normal_mot_HHH_b1_05185_000000011_0001_22_39_H_._HHH_b1_01436_0001_0000200019_0000001_1_af2pred_0001 (protein)
chain: SSSSSRLEESIRRALERLEKAIREGDEEFVRLTIRLIRILIELANNEELEEILEQLEREFGSSSS
B15: il10ra_site1_sap_23_mot_HHH_b1_01233_000000085_0001_1_18_H_._HHH_b1_01214_0001_0000100002_0000001_0_0001 (protein)
chain: SSSSDEEHIEELARAVERQLEQLSKYDPRLLERLAEAARKALELWDEELAREIEELAKELLSSSS
B16: il10ra_site1_sap_12_mot_HHH_b1_06789_af2_000000041_0001_1_20_H_._HHH_b2_05839_af2_0001_0000300031_0000002_0_0001 (protein)
chain: SSSSSDEEEIEELLREIKELLENNDRERALELIQEALRVIFQHSDEEALRELFELVRKLGSSSSS
B17: il10ra_site1_sap_18_mot_HHH_b1_05860_000000142_0001_1_19_H_._HHH_b2_01497_0001_0000300018_0000001_0_0001 (protein)
chain: SSSEEHNRVAEELARALIRNDEELVEELLEELEEYVEETNDPAAREMLEIIRRAFEALRKGSSSS
B18: il10ra_site1_normal_mot_7f9b3cf633cfd27bca007b62ade1be3b_0001_1_000000138_0001_17_32_H_._HHH_b1_02747_0001_0000100006_0000002_0_af2pred_0001 (protein)
chain: SSSSSSEQLFRAAERLIRALGNPELAEEVEELLERYEKEGDERYEQEAAELVLEAARLADSSSSS

molecular target: il10ra, Q13651; experiment: yeast display titration

| Binder | apparent Kd |
| --- | --- |
| B1 | inactive: no binding seen |
| B2 | inactive: no binding seen |
| B3 | inactive: no binding seen |
| B4 | inactive: no binding seen |
| B5 | inactive: no binding seen |
| B6 | inactive: no binding seen |
| B7 | inactive: no binding seen |
| B8 | inactive: no binding seen |
| B9 | inactive: no binding seen |
| B10 | inactive: no binding seen |
| B11 | inactive: no binding seen |
| B12 | inactive: no binding seen |
| B13 | inactive: no binding seen |
| B14 | inactive: no binding seen |
| B15 | inactive: no binding seen |
| B16 | inactive: no binding seen |
| B17 | inactive: no binding seen |
| B18 | inactive: no binding seen |

As entered above.
For apparent Kd, B1 is entered as inactive: no binding seen
For apparent Kd, B15 is entered as inactive: no binding seen
